Reference: publication PMC1414084
These are yes or no findings as the source states them, for the method shown. Some binding calls cover weakened binding; strength is not graded here.

Columns and labels:
Assay in all cases: two-hybrid; mammalian two-hybrid; bait fused to the Gal4 DNA-binding domain (BIND), prey to the VP16 transcriptional activation domain (ACT); luciferase reporter; cultured mammalian cells, 37°C; positive from 3 times the background activity (level 1), the selected set is level 2 (>=5 to <10 times) and level 3 (>=10 times)
[1] = target: PH0125, 5'-methylthioadenosine phosphorylase (Pyrococcus horikoshii OT3) (UniProt O57865)
[2] = target: PH0008, hypothetical protein (Pyrococcus horikoshii OT3) (UniProt O57772)
[3] = target: PH0596, pyrrolidone-carboxylate peptidase (Pyrococcus horikoshii OT3) (UniProt O58321)
[4] = target: PH1305, hypothetical protein (Pyrococcus horikoshii OT3) (UniProt O59000)
[5] = target: PH0634, 6-pyruvoyl-tetrahydropterin synthase (Pyrococcus horikoshii OT3) (UniProt O58368)
[6] = target: PH1503, hypothetical protein (Pyrococcus horikoshii OT3) (UniProt O59172)
[7] = target: PH0762, probable thymidylate synthase (Pyrococcus horikoshii OT3) (UniProt O58498)
[8] = target: PH0776, methanol dehalogenase regulatory protein (Pyrococcus horikoshii OT3) (UniProt O58484)
[9] = target: PH0519, hypothetical protein (Pyrococcus horikoshii OT3) (UniProt O58255)
[10] = target: T1, PH0795, hypothetical protein (Pyrococcus horikoshii OT3) (UniProt O58525)
T1 sequence: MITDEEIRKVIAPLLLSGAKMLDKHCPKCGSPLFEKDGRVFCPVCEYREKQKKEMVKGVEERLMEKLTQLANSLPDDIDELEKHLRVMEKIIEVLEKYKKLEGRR

[11] = target: T2, PH0127, hypothetical protein (Pyrococcus horikoshii OT3) (UniProt O57867)
T2 sequence: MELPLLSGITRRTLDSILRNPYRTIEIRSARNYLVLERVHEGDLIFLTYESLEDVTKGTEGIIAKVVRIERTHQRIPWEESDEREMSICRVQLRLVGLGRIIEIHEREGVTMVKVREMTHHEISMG

B1: PH0125, 5'-methylthioadenosine phosphorylase (protein, UniProt O57865 1-257)
chain: MPKIGIIGGSGVYGVFEPKEVVKVHTPYGRPSAPIEIGEIEGVEVAFIPRHGKYHEFPPHQVPYRANIWALHELGVERVIAINAVGSLKEEYKPGDIVIIDQFIDFTKKREYTFYNGPKVAHVSMADPFCPELRKIFIETAKELNLPVHERGTYVCIEGPRFSTRAESRMFRQFADVIGMTLVPEVNLARELGMCYVNISTVTDYDVWAEKPVDAQEVLRVMKENEEKVQKLLKRAIPKIPEERKCGCADVLKTMFV
- binding [1]: binds

B2: PH0008, hypothetical protein (protein, UniProt O57772 1-380)
chain: MKAVKATLMYDGLGNIEKNVYIIFDKDIVNITREKPKDVEVVAEGVVTPAFIDAHSHIGMDRYGEPYQESELNEQMDSVLPLADALYSIYMDDKAFKHSIEFGVLYSSILPGSGNIIGGKGVLIRNYGRDIEDAFIKYVGVKAAFGYNPRSTTNWKGLRPSTRMGAIGILFNWLIKTKKTISLLEKGKKDPEEIDPVIEALIPVLKGEMPLRVHAHKEDDIAVLLMIKRKFNLKVTVEHAADVHSKETFEKIKREGVPLVYGPLDAHPYKVELKHEDWKNAKYLLEVKPFFGLMSDHPFSIQANLYLQLRHFIRLGMSKAEAIKLITYNNAKILGIEDKLGSLEKGKWASLVVWNGDPFNLENYPTHVFAEGELIHEANL
- binding [2]: binds

B3: PH0596, pyrrolidone-carboxylate peptidase (protein, UniProt O58321 1-206)
chain: MKILLTGFEPFGGDDKNPTMDIVEALSERIPEVVGEILPVSFKRAREKLLKVLDDVRPDITINLGLAPGRTHISVERVAVNMIDARIPDNDGEQPKDEPIVEGGPAAYFATIPTREIVEEMKKNGIPAVLSYTAGTYLCNFAMYLTLHTSATKGYPKIAGFIHVPYTPDQVLEKKNTPSMSLDLEIKGVEIAIRVAQSALHSSQLR
- binding [3]: binds

B4: PH1305, hypothetical protein (protein, UniProt O59000 1-252)
chain: MYELYTLLAEYYDTIYRRRIERVKAEIDFVEEIFKEDAKREVRRVLDLACGTGIPTLELAERGYEVVGLDLHEEMLRVARRKAKERNLKIEFLQGDVLEIAFKNEFDAVTMFFSTIMYFDEEDLRKLFSKVAEALKPGGVFITDFPCWFYGGRDGPVVWNEQKGEEKLVIMDWREVEPAVQKLRFKRLVQILRPNGEVKAFLVDDELNIYTPREVRLLAEKYFEKVKIYGNLKRELSPNDMRYWIVGIAKSF
- binding [4]: binds

B5: PH0634, 6-pyruvoyl-tetrahydropterin synthase (protein, UniProt O58368 1-115)
chain: MKSRIIVRTSFDAAHAVKVGDHWEDVHGHTFFLEVAIEGEIKNGYVMDFLELRKIVEEITKELDHRNLNNIFENPTTENIALWIGERIRDKLPPYVKLKRVVLWEGKDNGVELEW
- binding [5]: binds

B6: PH1503, hypothetical protein (protein, UniProt O59172 1-127)
chain: MVEVEHWNTLRLRIYIGENDKWEGRPLYKVIVEKLREMGIAGATVYRGIYGFGKKSRVHSSDVIRLSTDLPIIVEVVDRGHNIEKVVNVIKPMIKDGMITVEPTIVLWVGTQEEIKKFEEDAIAERQ
- binding [6]: binds

B7: PH0762, probable thymidylate synthase (protein, UniProt O58498 1-243)
chain: MVKVKLINYTPKPLETVTWAALISYWDGWSTEAFEKISPNDVEIHLPRILSYGHESILEHATFTFSIEGCSRVCTHQLVRHRIASYTQQSQRYIKINPEDVEETFVIPESIKKDSELLKEWKELLKRSLELYEKSIERGIHQEDARFILPQSVKTKIVVTMNLRELKHFFGLRLCERAQWEIREVAWKMLEEIAKRKELKPIIEWAKLGPRCIQLGYCPERELMPPGCLKRTRERWKNLLEKY
- binding [7]: binds

B8: PH0776, methanol dehalogenase regulatory protein (protein, UniProt O58484 1-314)
chain: MDVQKKAQMVIEEVKKAIVGKDNVLKLVLATILADGHILIEDLPGLAKTLMAKSFAKALGLEFKRVQFTPDLLPSDILGVNVFNQKTLEFEFKKGPVFTNILLADEINRAPPKTQSALLEAMQERQVTIEGVTYKLPKPFIVIATQNPIEQEGTYPLPEAQLDRFLVRLRMGYPSKDEEKEILRRRIERKQDEVEIETVLSPKDVLKMQREVEDVYVSDAIIEYITSLVWATREDKRDIEIGVSPRGSLALLKLSRAYAAIEGRDYVIPDDVKAVAIPALSHRIILKRELWYTRVSQESVIEKILERVPVPKFE
- binding [8]: binds

B9: PH0519, hypothetical protein (protein, UniProt O58255 1-332)
chain: MMSMIEKLKKFTQIPGISGYEERIREEIIREIKDFADYKVDAIGNLIVELGEGEERILFMAHMDEIGLLITGITDEGKLRFRKVGGIDDRLLYGRHVNVVTEKGILDGVIGATPPHLSLERDKSVIPWYDLVIDIGAESKEEALELVKPLDFAVFKKHFSVLNGKYVSTRGLDDRFGVVALIEAIKDLVDHELEGKVIFAFTVQEEVGLKGAKFLANHYYPQYAFAIDSFACCSPLTGDVKLGKGPVIRAVDNSAIYSRDLARKVWSIAEKNGIEIQIGVTGGGTDASAFQDRSKTLALSVPIKYLHSEVETLHLNDLEKLVKLIEALAFEL
- binding [9]: binds

B10: PH0795, hypothetical protein (protein, UniProt O58525 1-105)
chain: MITDEEIRKVIAPLLLSGAKMLDKHCPKCGSPLFEKDGRVFCPVCEYREKQKKEMVKGVEERLMEKLTQLANSLPDDIDELEKHLRVMEKIIEVLEKYKKLEGRR
- binding [10]: binds

B11: PH0127, hypothetical protein (protein, UniProt O57867 1-126)
chain: MELPLLSGITRRTLDSILRNPYRTIEIRSARNYLVLERVHEGDLIFLTYESLEDVTKGTEGIIAKVVRIERTHQRIPWEESDEREMSICRVQLRLVGLGRIIEIHEREGVTMVKVREMTHHEISMG
- binding [11]: binds

B12: PH0126, 3-isopropylmalate dehydratase (protein, UniProt O57866 1-241)
chain: MENRPVNIVLPKIENPILIEGYPGIGLVGHIAANFLAKELKMEVIGYVESSFIPPMSLILEGKPNPPLRFYGKDNIIIAVADIYLPPTLINEIAKEIANYLEQNKAEKVISLGGMGIGIFKDKFEVWGVGGTEEENKELQDLGVKILEYGSISGMSGKLLWEASRRGLKSYVILGETFGDRPDPRAAANVVEVLDRMLTLNVSVEPLLKEAEMIEEQLRKMHEQMEKARRSVEKQYETMYL
- binding [11]: binds

B13: PH0017 (protein, UniProt O57762 1-549)
chain: MAQLAGQPILILPEGTQRYVGRDAQRMNILAARIIAETVRTTLGPKGMDKMLVDSLGDIVITNDGATILDEMDIQHPAAKMMVEVAKTQDKEAGDGTTTAVVIAGELLKKAEELLDQNIHPSIIIKGYTLASQKAQEILDSIAKEVKPDDEEVLLKAAMTAITGKAAEEEREYLAKLAVEAVKLVAEEKDGKLKVDIDNIKLEKKEGGAVRDTRLIRGVVIDKEVVHPGMPKRIENAKIALINDALEVKETETDAEIRITSPEQLQAFLEQEEKMLKEMVDKIKEVGANVVFVQKGIDDLAQHYLAKYGILAVRRVKKSDMEKLAKATGAKIVTNIRDLTPEDLGEAELVEERKVAGENMIFVEGCKNPKAVTILIRGGTEHVVDEVERALEDAIKVVKDILEDGKIIAGGGASEIELSIKLDEYAKEVGGKEQLAIEAFAEALKVIPRTLAENAGLDPIETLVKVIAAHKEKGQTIGIDVYEGEPADMMERGVIEPVRVKKQAIKSASEAAIMILRIDDVIAASKLEKEKEGEKGGGSEEFSGSSDLD
- binding [10]: binds
